In the supplement of paper PMC3334620:
Whole data set: some 33,000 sequences, median “E-score (-0.5 to 0.5)” near -0.0059, cut for the highest 2% near 0.26. The list shows a part of the results.

Each sequence was assayed against T1, Cin5 (UniProt P40917) (assay: PBM E-score (8-mer binding enrichment) (E-score (-0.5 to 0.5)); higher = stronger / more preferred TF binding). Settings: protein concentration: 100 nM; construct: GST-full length.
T1 sequence: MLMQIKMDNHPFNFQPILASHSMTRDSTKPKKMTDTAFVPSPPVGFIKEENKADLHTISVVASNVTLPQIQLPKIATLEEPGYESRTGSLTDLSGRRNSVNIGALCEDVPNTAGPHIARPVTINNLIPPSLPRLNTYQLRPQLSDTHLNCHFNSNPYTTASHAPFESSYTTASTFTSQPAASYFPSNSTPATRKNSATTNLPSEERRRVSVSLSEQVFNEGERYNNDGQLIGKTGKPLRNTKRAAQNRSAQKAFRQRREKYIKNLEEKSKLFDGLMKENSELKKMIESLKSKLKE
Description: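 Universal 'all 10-mer' protein binding microarrays (Agilent AMADID 015681) probed with GST-tagged S. cerevisiae TFs (full-length or DBD) made by in vitro transcription/translation (PURExpress), about 100-200 nM. Bound TF was detected with fluorescent anti-GST. Each ungapped 8-mer (which stands for itself and its reverse complement) is scored by the PBM enrichment score (E-score), a modified Wilcoxon-Mann-Whitney statistic from -0.5 to +0.5, computed with the Universal PBM Analysis Suite. Scale: above 0.35 generally sequence-specific binding.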

Row | Sequence | PBM E-score
1 | TGGATACA | 0.0703
2 | CATCGGGC | -0.081
3 | AAAGTAAG | 0.00481
4 | ACGACTAA | -0.0545
5 | CTAAACAC | -0.0679
6 | GCCAGCAA | -0.0858
7 | GGCGGACC | -0.213
8 | CCCGTTGA | -0.132
9 | ACACCCCC | -0.432
10 | CGCCGACG | -0.177
11 | GTGGGAAC | -0.144
12 | CAGCTTCC | -0.0882
13 | GGCGCCAC | -0.158
14 | CATCGATA | 0.258
15 | AGGGTCTG | -0.234
16 | GATTGACA | 0.174
17 | AGTCTAAT | 0.0109
18 | CCTGTGCA | -0.119
19 | CAGACCAG | -0.0764
20 | CCAAAGAA | 0.114
21 | AGACATTC | -0.0508
22 | AGTACCGA | -0.117
23 | AGAGCGCC | -0.143
24 | CCACAGGC | -0.308
25 | GCCACAAC | 0.126

Single values from the results shown.
Value for CCACAGGC under PBM E-score: -0.308
Value for AGACATTC under PBM E-score: -0.0508
Value for CCTGTGCA under PBM E-score: -0.119
Value for CGCCGACG under PBM E-score: -0.177

(list continues)

Row | Sequence | PBM E-score
26 | AAGCCCGC | -0.0465
27 | AGCCATCG | -0.0037
28 | GACTGATC | -0.00898
29 | GATTGACC | -0.169
30 | ACGAGCCA | -0.0272
31 | ACTCGACC | -0.152
32 | ATAGATAA | 0.267
33 | CACTGTAG | 0.0998
34 | CAGCACTG | -0.0716
35 | GGCAAGGA | -0.0654
36 | CCGGTAAA | 0.0591
37 | AAGAGAGC | -0.251
38 | AAGTCGCA | 0.135
39 | CCATAAGC | 0.215
40 | AGACGGCA | -0.0187
41 | ATGGCGCC | -0.095
42 | AATCGCGA | 0.194
43 | CCGATCCG | -0.0859
44 | TATGTCAA | 0.294
45 | AAGCGGGC | -0.113
46 | ATACCTCG | 0.134
47 | CCTATCGC | -0.168
48 | AAATTGTT | 0.0848
49 | CCACGCAC | -0.035
50 | ATATGGTC | 0.129

Row | Sequence | PBM E-score
51 | ATCTGCCA | -0.139
52 | CTCGCTTA | 0.346
53 | CTGACCTA | -0.0425
54 | GGAGGGCC | -0.259
55 | ACCACACA | 0.0594
56 | ATGATTGA | 0.132
57 | ATAACCTG | 0.0832
58 | ACAGCTGC | -0.0481
59 | CATTGTAA | 0.0665
60 | ACCGCTGC | -0.212
61 | CATCATGA | 0.122
62 | ACGACTCC | -0.133
63 | AACCGCAG | -0.0469
64 | CATCAGTA | 0.167
65 | AGCTGAAT | 0.231
66 | CCTAACGC | -0.0883
67 | CGTTCCTC | -0.103
68 | AACCGAGG | -0.185
69 | CACTGTTA | -0.109
70 | CCCCGCCG | 0.029
71 | GAGTTGTA | 0.0828
72 | CATTAACA | 0.098
73 | CGACTGAG | -0.14
74 | AGTGGAAT | 0.0697
75 | ATAACTTA | 0.115

In a second layout: entries from further up
CTAAACAC
  PBM E-score: -0.0679
GGCGGACC
  PBM E-score: -0.213
ACTCGACC
  PBM E-score: -0.152
AATCGCGA
  PBM E-score: 0.194

The list goes on.

Row | Sequence | PBM E-score
76 | ACAGGAGA | -0.0501
77 | CATCCGAC | -0.141
78 | ACAGGATG | 0.0645
79 | ACTCCCAG | 0.0654
80 | TGGGAGAA | -0.194
81 | ATCAGCCG | 0.0717
82 | ACATCCGC | 0.0458
83 | AGCCCTAC | -0.091
84 | GTGTTGCA | 0.00557
85 | CAATAGCG | 0.127
86 | CTATTAAC | 0.115
87 | ATAAGGAA | -0.0638
88 | GGGATTAA | 0.23
89 | GACATGCC | -0.103
90 | AGAAATCT | 0.121
91 | GTCATCTA | 0.0599
92 | TTATACAA | 0.159
93 | ATTGACTG | 0.00256
94 | ATTTTCGG | 0.105
95 | CCGGGACG | -0.162
96 | CATCTCCA | -0.0213
97 | CGCTGTAA | 0.137
98 | ACGAACAT | 0.138
99 | ACACATTG | 0.182
100 | CTTCTGGA | -0.187

Row | Sequence | PBM E-score
101 | AGAATTCA | 0.0724
102 | AGGGCCAG | -0.177
103 | TGCTTCCA | -0.206
104 | ACTGCAGT | -0.171
105 | GGCCTCCC | -0.257
106 | ACTCCCAT | -0.0862
107 | GCTTCTGA | -0.00693
108 | GGAACTTA | 0.149
109 | AGACATGA | -0.0475
110 | AAGAGCGT | 0.103
111 | GCTACGCA | -0.129
112 | ATTCACAC | 0.111
113 | GCGATGCC | -0.329
114 | GTGAGCAA | -0.0402
115 | GAGTCAGC | -0.0523
116 | CCTAGGAC | -0.103
117 | CCCCTCAC | 0.107
118 | ACAAATCG | 0.0796
119 | AAGATAGG | 0.0177
120 | AGCATATG | 0.0101
121 | ATTGGGGC | 0.0971
122 | AAGGCCCG | -0.334
123 | CTTATCGA | 0.168
124 | TAAACCCA | 0.08
125 | ACACTATA | 0.161

Row | Sequence | PBM E-score
126 | CATGAGGC | -0.152
127 | GTCTATAA | 0.152
128 | AGCTCCAT | -0.0241
129 | GGTATATA | 0.203
130 | ATCAACAG | 0.146
131 | AGATAGAA | 0.00031
132 | ACAGGGAC | -0.214
133 | CTCCGTGC | -0.168
134 | CACCCGCA | -0.114
135 | AACAACAT | 0.0919
136 | GCGCTTAC | 0.214
137 | AGTGTAGG | -0.051
138 | GGGCTACA | -0.212
139 | TGCGGACA | 0.111
140 | ACTCAAGT | -0.0957
141 | AGATTTTG | 0.0675
142 | CACAGAGC | -0.112
143 | GACATAAC | 0.276
144 | CACGTGCA | -0.0305
145 | CTTAGCAA | 0.123
146 | GAAATTCA | 0.167
147 | ACTGATTC | 0.113
148 | AACCTATG | -0.0934
149 | AGCTTAAA | -0.00083
150 | CGGTAAGC | 0.114

7 records picked at random from those above:
Row | Sequence | PBM E-score
129 | GGTATATA | 0.203
135 | AACAACAT | 0.0919
130 | ATCAACAG | 0.146
128 | AGCTCCAT | -0.0241
144 | CACGTGCA | -0.0305
142 | CACAGAGC | -0.112
138 | GGGCTACA | -0.212

Next part.

Row | Sequence | PBM E-score
151 | CCGCAAGC | -0.163
152 | GTCGCGAC | 0.317
153 | GGACCTCA | -0.0665
154 | GCTTCAAA | -0.0744
155 | ATGAGGGC | -0.0834
156 | AGAACATC | 0.038
157 | AATGTGCG | 0.109
158 | ACAAAGGC | -0.102
159 | AACGTGCC | -0.0876
160 | AGCTTCTG | -0.0657
161 | GGCACTGA | -0.0895
162 | CTAACTTC | -0.0499
163 | CAGGGCCC | -0.133
164 | CGTATTTA | 0.308
165 | AGGCTACA | -0.0541
166 | ACTCTCAA | -0.0661
167 | AAGGTTAG | -0.0019
168 | CGATCAGC | 0.0064
169 | GGCCAGTA | -0.00787
170 | AGATCCCG | 0.159
171 | CACCTCTA | 0.0362
172 | CTGTTAAC | 0.194
173 | CCTTACCA | -0.0985
174 | CCAGCACC | -0.158
175 | ACTTAAAG | -0.201

Row | Sequence | PBM E-score
176 | ACCACCCC | -0.235
177 | AATGTTAT | 0.153
178 | TAAACAAA | 0.14
179 | CGGCTTGA | 0.0318
180 | CAACGCCC | -0.0754
181 | CTACAATC | 0.201
182 | CAATACAG | 0.0431
183 | ATCGCGTG | 0.133
184 | CCGACAGG | -0.05
185 | CGGATATA | 0.246
186 | CTTTGGAA | -0.0653
187 | CGCTGCTC | -0.154
188 | CCTTAATC | -0.104
189 | AAATTCGC | 0.192
190 | CTGATGTC | 0.184
191 | ACTGAACC | -0.176
192 | AACGGCGA | 0.203
193 | GGGCATCA | -0.233
194 | GACTGATA | 0.00101
195 | CGGTACAC | -0.271
196 | AACAAGAC | 0.157
197 | ACTAACGC | -0.0122
198 | AGCTCCGC | -0.142
199 | AGGGGGGA | -0.343
200 | AATGGTGC | -0.0336

Row | Sequence | PBM E-score
201 | ATTCTTCA | 0.076
202 | CACTGGGA | -0.0729
203 | TAGTTCCA | 0.0959
204 | AATATCTG | 0.0359
205 | GCACTACA | -0.17
206 | ATCGATTA | 0.248
207 | CCAATGCC | -0.124
208 | ACGTATCT | -0.198
209 | ATTTAACG | 0.135
210 | AATGTTGG | 0.114
211 | GAAACCGC | 0.185
212 | AAGGGCCT | -0.365
213 | CGTAGCCC | -0.0985
214 | GAGCGTCC | -0.136
215 | AATGGACG | 0.169
216 | AGAGTCGC | -0.0772
217 | ACTCCTAG | -0.151
218 | ATGACACC | 0.0137
219 | TCGGAACA | 0.29
